Source: publication PMC7733952
Results are given in words; binding and its absence hold for the method and conditions named. In cells and extracts the contact can be indirect. Here binding means that the protein was enriched with, or labelled near, the bait; the list need not be complete.

B1: M. tuberculosis MmsA (Rv0753c) from H37Rv in infected RAW264.7 cells (protein, UniProt O53816 1-510)
chain: MTTQISHFIDGQRTAGQSTRSADVFDPNTGQIQAKVPMAGKSDIDAAVASAVEAQKGWAAWNPQRRARVLMRFIELVNDTIDELAELLSREHGKTLADARGDVQRGIEVIEFCLGIPHLLKGEYTEGAGPGIDVYSLRQPLGVVAGITPFNFPAMIPLWKAGPALACGNAFVLKPSERDPSVPVRLAELFIEAGLPAGVFQVVHGDKEAVDAILHHPDIKAVGFVGSSDIAQYIYAGAAATGKRAQCFGGAKNHMIVMPDADLDQAVDALIGAGYGSAGERCMAISVAVPVGDQTAERLRARLIERINNLRVGHSLDPKADYGPLVTGAALARVRDYIGQGVAAGAELVVDGRDRASDDLTFGLPEGDANLEGGFFIGPTLFDHVAAHMSIYTDEIFGPVLCMVRARDYEEALRLPSEHEYGNGVAIFTRDGDAARDFVSRVQVGMVGVNVPIPVPVAYHTFGGWKRSGFGDLNQHGPAAIQFYTKVKTVTSRWPSGIKDGAEFVIPTMS
B2: SFPQ (protein, UniProt Q8VIJ6 1-699)
chain: MSRDRFRSRGGGGGGFHRRGGGGGRGGLHDFRSPPPGMGLNQNRGPMGPGPGGPKPPLPPPPPHQQQQQPPPQQPPPQQPPPHQQPPPHQPPHQQPPPPPQESKPVVPQGPGSAPGVSSAPPPAVSAPPANPPTTGAPPGPGPTPTPPPAVPSTAPGPPPPSTPSSGVSTTPPQTGGPPPPPAGGAGPGPKPGPGPGGPKGGKMPGGPKPGGGPGMGAPGGHPKPPHRGGGEPRGGRQHHAPYHQQHHQGPPPGGPGPRTEEKISDSEGFKANLSLLRRPGEKTYTQRCRLFVGNLPADITEDEFKRLFAKYGEPGEVFINKGKGFGFIKLESRALAEIAKAELDDTPMRGRQLRVRFATHAAALSVRNLSPYVSNELLEEAFSQFGPIERAVVIVDDRGRSTGKGIVEFASKPAARKAFERCSEGVFLLTTTPRPVIVEPLEQLDDEDGLPEKLAQKNPMYQKERETPPRFAQHGTFEYEYSQRWKSLDEMEKQQREQVEKNMKDAKDKLESEMEDAYHEHQANLLRQDLMRRQEELRRMEELHSQEMQKRKEMQLRQEEERRRREEEMMIRQREMEEQMRRQREESYSRMGYMDPRERDMRMGGGGTMNMGDPYGSGGQKFPPLGGGGGIGYEANPGVPPATMSGSMMGSDMRTERFGQGGAGPVGGQGPRGMGPGTPAGYGRGREEYEGPNKKPRF

Biological target: T1, endogenous STING of RAW264.7 cells (mouse (endogenous in RAW264.7)) (UniProt Q3TBT3)
T1 sequence: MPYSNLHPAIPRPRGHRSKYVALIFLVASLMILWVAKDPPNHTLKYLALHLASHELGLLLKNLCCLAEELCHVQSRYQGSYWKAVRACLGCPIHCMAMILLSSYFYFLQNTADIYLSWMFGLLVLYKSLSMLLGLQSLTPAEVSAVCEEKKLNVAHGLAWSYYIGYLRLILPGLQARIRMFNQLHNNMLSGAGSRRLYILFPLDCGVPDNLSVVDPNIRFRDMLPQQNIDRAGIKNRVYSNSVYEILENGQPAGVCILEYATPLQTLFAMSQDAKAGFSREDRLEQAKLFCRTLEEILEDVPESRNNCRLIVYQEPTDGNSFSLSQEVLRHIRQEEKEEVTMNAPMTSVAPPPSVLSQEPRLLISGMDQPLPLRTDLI
Experiment: affinity purification with mass spectrometry

Binder	binding
B1	binds
B2	binds
